We go through four molecules from paper PMC11139282, “Structure and activity of the septal peptidoglycan hydrolysis machinery crucial for bacterial cell division” (PLOS Biology, 2024).

For test [1], the target named is T1, FtsX (co-expressed with FtsE^E163Q) (E. coli K-12) (UniProt P0AC30).
T1 sequence: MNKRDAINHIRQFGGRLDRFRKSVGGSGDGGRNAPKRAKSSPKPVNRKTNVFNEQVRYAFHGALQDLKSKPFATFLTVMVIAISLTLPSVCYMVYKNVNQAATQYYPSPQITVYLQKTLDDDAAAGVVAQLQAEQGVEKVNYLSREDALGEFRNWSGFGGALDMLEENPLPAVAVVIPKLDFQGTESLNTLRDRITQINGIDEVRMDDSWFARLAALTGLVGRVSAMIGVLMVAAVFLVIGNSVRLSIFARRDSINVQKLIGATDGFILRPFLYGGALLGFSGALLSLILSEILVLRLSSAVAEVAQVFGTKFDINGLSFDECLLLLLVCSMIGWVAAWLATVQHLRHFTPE
Put plainly: co-purification (HisTrap + SEC); FtsE^E163Q and FtsX co-expressed in E. coli C43(DE3); membranes solubilised in 1% DDM with 1 mM ATP; HisTrap, SEC, TEV cleavage, SEC; 20 mM Tris pH 8.0, 300 mM NaCl.

Test [2] concerns the target T2, FtsX^Δ4–18 (E. coli K-12) (UniProt P0AC30).
T2 sequence: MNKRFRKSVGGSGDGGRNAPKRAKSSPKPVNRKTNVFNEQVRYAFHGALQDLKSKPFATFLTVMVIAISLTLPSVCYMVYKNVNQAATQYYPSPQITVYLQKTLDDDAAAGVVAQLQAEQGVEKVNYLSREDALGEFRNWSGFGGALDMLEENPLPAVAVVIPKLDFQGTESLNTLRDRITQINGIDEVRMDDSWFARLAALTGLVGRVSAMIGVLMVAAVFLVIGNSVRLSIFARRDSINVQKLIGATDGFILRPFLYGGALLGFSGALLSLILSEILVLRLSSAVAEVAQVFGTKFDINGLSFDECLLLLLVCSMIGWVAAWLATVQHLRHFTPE
Nature of the test: cryo-EM structure; ATP-bound FtsE^E163QX^Δ4-18-EnvC(35-420) reconstituted in PMAL-C8, about 1 mg/ml, 3.11 Å; both purified.

Test [3] concerns the target T2, FtsX^Δ4–18 (E. coli K-12). Nature of the test: cryo-EM structure; ATP-bound FtsE^E163QX^Δ4-18 in PMAL-C8, about 1 mg/ml, 3.05 Å; both purified.
The target of test [4] is T3, FtsX^I261D (E. coli K-12) (UniProt P0AC30).
T3 sequence: T1 sequence with I261D
Put plainly: co-sedimentation; membrane fraction (140,000 x g) of E. coli WZC1 co-expressing Flag-FtsE and FtsX-His8-Myc or its mutants; western blot with anti-Flag and anti-Myc.

The target of test [5] is T4, FtsX(His&Myc) (E. coli K-12) (UniProt P0AC30).
T4 sequence: T1 sequence
The test is described as above.

For test [6], the target named is T5, EnvC_(35-420) (E. coli K-12, UniProt P37690 35-419).
T5 construct: Only part of the coiled-coil domain is modelled in the cryo-EM structure; also called ecEnvC; source: E. coli C43(DE3), purified (Ni-NTA, SEC, TEV, Ni-NTA, SEC); not shown: His8, N-terminal, cleaved; SUMO, N-terminal, cleaved; Strep tag II, C-terminal, kept
T5 sequence (looked up): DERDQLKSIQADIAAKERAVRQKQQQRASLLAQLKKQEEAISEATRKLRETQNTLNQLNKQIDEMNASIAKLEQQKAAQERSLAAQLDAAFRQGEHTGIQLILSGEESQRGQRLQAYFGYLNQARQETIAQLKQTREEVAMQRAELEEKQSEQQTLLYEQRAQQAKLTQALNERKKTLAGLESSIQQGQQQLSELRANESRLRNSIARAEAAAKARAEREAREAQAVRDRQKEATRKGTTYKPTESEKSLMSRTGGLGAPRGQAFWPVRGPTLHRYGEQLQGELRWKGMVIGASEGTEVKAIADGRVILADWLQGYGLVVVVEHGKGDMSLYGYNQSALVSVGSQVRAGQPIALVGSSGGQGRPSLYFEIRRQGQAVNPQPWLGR
Nature of the test: pull-down + SEC; purified FtsE^E163QX or FtsX incubated with EnvC(35-420)-Strep at a molar ratio of 1:1.5, moved into PMAL-C8; Strep column to remove unbound FtsEX or FtsX, then Superdex 200 in 20 mM Tris pH 8.0, 300 mM NaCl (1 mM ATP for FtsE^E163QX); peak validated by SDS-PAGE; both purified.

Test [7] concerns the target T5, EnvC_(35-420). Nature of the test: cryo-EM structure; ATP-bound FtsE^E163QX^Δ4-18-EnvC(35-420) reconstituted in PMAL-C8, about 1 mg/ml, 3.11 Å; both purified.

Positions count from the first letter of the chain named. In names and notes the source's numbering stands. These are yes or no findings as the source states them, for the method shown. For some of these results: In cells and extracts the contact can be indirect. Some entries that bind do so weakly or less than the wild type. For some of these results: Tags and fused reporters may be left off the sequences shown.

B1: FtsE^E163Q (natural protein, E. coli K-12, UniProt P0A9R7 1-222, looked up)
chain: MIRFEHVSKAYLGGRQALQGVTFHMQPGEMAFLTGHSGAGKSTLLKLICGIERPSAGKIWFSGHDITRLKNREVPFLRRQIGMIFQDHHLLMDRTVYDNVAIPLIIAGASGDDIRRRVSAALDKVGLLDKAKNFPIQLSGGEQQRVGIARAVVNKPAVLLADQPTGNLDDALSEGILRLFEEFNRVGVTVLMATHDINLISRRSYRMLTLSDGHLHGGVGHE
notes: The pSUMO plasmid adds an N-terminal His8-SUMO-TEV site, removed by TEV; Two copies stand in the FtsEX complex; also called ecFtsE^E163Q; not shown: His8 (chain inferred: first gene of pSUMO-ftsEX), N-terminal, cleaved; SUMO (chain inferred: first gene of pSUMO-ftsEX), N-terminal, cleaved
B1: the binding entry in test [1], in test [2] and in test [3] was “binds” each time.

B2: FtsE(Flag) (protein, UniProt P0A9R7 1-222)
chain: B1 chain with Q163E
On to B2, for which the binding entry is “binds weakly” in test [4] and “binds” in test [5].

B3: FtsE^E163QX complex (complex, UniProt P0A9R7 1-222; P0AC30 1-352)
chain 1: B1 chain
chain 2: T1 sequence
As for B3, the binding entry with EnvC_(35-420) [6] is “binds”.

B4: FtsE^E163QX^Δ4–18 complex (complex, UniProt P0A9R7 1-222; P0AC30 1-352)
chain 1: B1 chain
chain 2: T2 sequence
Regarding B4, the binding entry in the test with EnvC_(35-420) [7] is listed as “binds”.
